In PubChem BioAssay AID624297 (National Center for Advancing Translational Sciences (NCATS), 2012):
About 6,200 (1.8%) of roughly 340,000 compounds were called active. Inconclusive results, whose numbers are uncertain, are shown with a selection of clear calls. Calls come from the whole dose curve; as a rule, active = well fitted activation curve with a large enough effect; inconclusive = small, poorly fitted or top-dose-only effect; inactive = no such curve, though single readings can be large or run the other way. A potency beside an inconclusive call is a rough fit, not a confirmed value.

assay: A quantitative high throughput screen for small molecules that induce DNA re-replication in SW480 colon adenocarcinoma cells.; note: nearly all actives have a fitted effect of over 55% in size; for re-replication activation: % of control where 0% means no effect; settings: Hoechst DNA content imaging, 48 h; re-replication activation: at 46.1 µM (top of the series) unless noted
Method in brief: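 First, 250 cells per well were seeded. Next, compound or vehicle (23 nL) was pinned in, plates sat 48 hr at 37 C. Finally Hoechst was added for 40 min before fluorescence scanning.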
Potency is the fitted concentration of half-maximal effect.

Row | SMILES | Potency | re-replication activation
1 | Cc1ccc(/C=N/NC(=O)c2n[nH]c3c2CCCC3)cc1 | active: 0.731 µM | 
2 | CCOc1ccc2nc(NC(=O)CSc3nc4cccnc4n3C)sc2c1 | inconclusive: 29.1 µM [activator, partial curve, poor fit] | 
3 | O=C(N/N=C/C=C\c1ccccc1[N+](=O)[O-])c1cc(-c2ccccc2)nc2ccccc12 | inconclusive: 14.6 µM [activator, partial curve] | 
4 | O=C(Nc1ccc(N2CCN(c3ccc(C(F)(F)F)cn3)CC2)nc1)c1cccs1 | inconclusive: 0.58 µM [activator, full curve, poor fit] | 
5 | CCN(CC)C1Oc2cc3c(cc2C(c2cc(OC)c(OC)c(OC)c2)C1C)OCO3 (stereo not drawn) | inconclusive: 1.84 µM [activator, partial curve, poor fit] | 
6 | COCC(=O)Nc1ncc(S(=O)(=O)c2ccc([N+](=O)[O-])cc2)s1 | inactive | 
7 | CN(c1ccccc1)S(=O)(=O)c1ccc(C(=O)NCc2ccc(F)cc2)cc1 | inconclusive: 29.1 µM [activator, partial curve, poor fit] | 
8 | COCCN(C(=O)COC(=O)/C=C/c1ccccc1Cl)c1c(N)n(Cc2ccccc2)c(=O)[nH]c1=O | inconclusive: 16.4 µM [activator, single point] | 
9 | COc1ccc(-n2nnnc2-c2cccc(OC)c2)cc1 | active: 3.26 µM | 
10 | O=C(Cn1cnc2c(cnn2-c2ccccc2)c1=O)NCc1ccccc1 | inconclusive: 29.1 µM [activator, single point] | 
11 | COc1ccc(CC2SC(=Nc3ccc(F)cc3)NC2=O)cc1 (stereo not drawn) | inactive | 
12 | COC(=O)c1c(C(=O)OC)n(CCCN)c2ccc(C)cc12 | inconclusive: 29.1 µM [activator, single point] | 
13 | O=C(Nc1ccc2nc(-c3cccs3)[nH]c2c1)c1ccco1 |  | inactive: -6.86% [at 9.22 µM]
14 | O=C(Cc1cccs1)Nc1nc(-c2ccc(F)cc2F)cs1 | inconclusive: 23.1 µM [activator, single point] | 
15 | COc1ccc([N+](=O)[O-])cc1NC(=O)C(C)N1CCCC1 (stereo not drawn) | inactive | 
16 | Cc1nc2ncnn2c(N2CCCC(C(=O)Nc3ccc4c(c3)CCC4)C2)c1C (stereo not drawn) | inactive | 
17 | O=C(NNC(=O)c1ccccc1[N+](=O)[O-])c1csc(N2CCOCC2)n1 | inactive | 
18 | O=C(NCCN1C(=O)S/C(=C\c2ccc(OC(F)F)cc2)C1=O)C1=COCCO1 | active: 20.6 µM | 
19 | Cc1ccccc1OCc1nc2ccccc2c(=O)n1/N=C/c1c[nH]c2ccccc12 | inconclusive: 14.6 µM [activator, partial curve, poor fit] | 
20 | CN1C(=O)C(CC(=O)NCC2CCCCC2)SC1=Nc1ccccc1 (stereo not drawn) | inconclusive: 18.4 µM [activator, single point] | 
21 | COc1ccc(CCC(=O)NCC2CCCCC2)cc1OC | inactive | 
22 | COc1ccc(CNC(=O)COc2ccc(C(=O)c3ccc(F)cc3)cc2)cc1 | inconclusive: 29.1 µM [activator, single point] | 

Row | SMILES | Potency | re-replication activation
23 | O=C(NCc1ccco1)C1CC2CCC1C2 (stereo not drawn) | inconclusive: 0.326 µM [activator, full curve, poor fit] | 
24 | CCCCN(C(=O)c1ccc2c(c1)S(=O)(=O)N=C1CCCCCN12)c1c(N)n(CCCC)c(=O)[nH]c1=O | inactive | 
25 | O=[N+]([O-])c1ccc2c(c1N1CCCCC1)=NC1(CCCCC1)[N+]=2[O-] | inconclusive: 4.11 µM [activator, partial curve, poor fit] | 
26 | Cc1cc(-c2ccc([N+](=O)[O-])cc2)cc(C)n1 | inactive | 
27 | O=C(NC1CCN(C(=S)NCc2ccco2)CC1)c1ccc(F)cc1 | inconclusive: 18.4 µM [activator, partial curve, poor fit] | 
28 | CCC(C)(C)C(=O)Nc1ncc(S(=O)(=O)c2ccc([N+](=O)[O-])cc2)s1 | inconclusive: 0.651 µM [activator, single point] | 
29 | CCN(C(=O)c1cnc(N2CCN(c3ncccn3)CC2)c2ccccc12)c1cccc(Cl)c1 | inconclusive: 16.4 µM [activator, partial curve, poor fit] | 
30 | CC(C)OC(=O)c1cc(NC(=S)Nc2ccc([N+](=O)[O-])cc2)cc(C(=O)OC(C)C)c1 | inconclusive: 32.6 µM [activator, partial curve, poor fit] | 
31 | O=C(NNc1nc2cc3c(cc2s1)OCO3)c1cccc(F)c1 | inconclusive: 29.1 µM [activator, single point] | 
32 | O=C(Oc1ccc(-c2nnco2)cc1)c1ccc(Br)o1 | inactive | 
33 | CCN1CCN(S(=O)(=O)c2ccc(C(C)(C)C)cc2)CC1 | active: 23.1 µM | 
34 | Cc1cc2occ(CC(=O)N(C)CC(=O)Nc3ccc(F)cc3)c2cc1C | inconclusive: 2.91 µM [activator, full curve, poor fit] | 
35 | O=C(Nc1ccnn1C1CCN(C/C=C/c2ccccc2)CC1)C1CCCC1 |  | inconclusive: 128% [activator]
36 | COC(=O)Cc1c(-c2[nH]c3ccccc3c2CC(=O)OC)[nH]c2ccccc12 | inactive | 
37 | O=C(Cn1nc(C(=O)O)c2ccccc2c1=O)Nc1ccc2c(c1)OCO2 | inconclusive: 0.58 µM [activator, partial curve, poor fit] | 
38 | C=CCNC(=O)C(C#N)c1nc2ccccc2nc1N1CCCCCC1 (stereo not drawn) | inconclusive: 25.9 µM [activator, partial curve, poor fit] | 
39 | CCSc1nnc(NC(=O)c2cccc(S(=O)(=O)N(C)c3ccc(C)cc3)c2)s1 | active: 18.4 µM | 
40 | C/C(=N\Nc1ncnc2sc(C)c(C)c12)c1ccccn1 | inconclusive: 0.0046 µM [activator, full curve, poor fit] | 
41 | C/C(=N\N1CCN(Cc2ccccc2)CC1)c1ccco1 | inconclusive: 29.1 µM [activator, single point] | 
42 | COc1ccccc1OCc1ccc(C(=O)N2CCOCC2)o1 | inconclusive: 0.146 µM [activator, full curve, poor fit] | 
43 | Cc1c(C(=O)c2ccccc2)c2ccccn2c1CCC#N | inconclusive: 0.411 µM [activator, full curve, poor fit] | 

Two entries picked at random from those above, as already listed:
Row | SMILES | Potency | re-replication activation
38 | C=CCNC(=O)C(C#N)c1nc2ccccc2nc1N1CCCCCC1 (stereo not drawn) | inconclusive: 25.9 µM [activator, partial curve, poor fit] | 
29 | CCN(C(=O)c1cnc(N2CCN(c3ncccn3)CC2)c2ccccc12)c1cccc(Cl)c1 | inconclusive: 16.4 µM [activator, partial curve, poor fit] | 
